These are yes or no findings as the source states them, for the method shown. In cells and extracts the contact can be indirect. Some entries that bind do so weakly or less than the wild type. Sequences can lack the tags named with a protein.
T1: GST fusion with the receptor interaction domains (RID) of NCoRω (amino acids 1817–2453) (UniProt Q60974)
T1 sequence: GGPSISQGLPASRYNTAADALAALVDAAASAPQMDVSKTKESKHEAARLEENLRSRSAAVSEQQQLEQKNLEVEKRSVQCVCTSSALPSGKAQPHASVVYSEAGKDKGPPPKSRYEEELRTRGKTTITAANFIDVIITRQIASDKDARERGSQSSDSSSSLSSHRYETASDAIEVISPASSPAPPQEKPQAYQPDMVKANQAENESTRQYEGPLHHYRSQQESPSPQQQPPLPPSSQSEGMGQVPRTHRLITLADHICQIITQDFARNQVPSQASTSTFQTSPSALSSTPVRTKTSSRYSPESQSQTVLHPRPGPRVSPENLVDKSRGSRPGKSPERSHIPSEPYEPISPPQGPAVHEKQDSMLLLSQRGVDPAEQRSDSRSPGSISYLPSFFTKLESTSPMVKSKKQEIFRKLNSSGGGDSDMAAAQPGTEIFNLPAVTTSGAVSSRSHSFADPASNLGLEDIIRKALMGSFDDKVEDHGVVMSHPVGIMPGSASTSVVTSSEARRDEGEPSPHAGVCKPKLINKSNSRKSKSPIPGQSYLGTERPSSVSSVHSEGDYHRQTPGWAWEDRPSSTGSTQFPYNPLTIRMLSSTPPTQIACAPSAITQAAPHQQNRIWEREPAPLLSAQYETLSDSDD

Sequences of proteins named here, by UniProt entry; tags and fusion partners are left off.
UniProt P37231: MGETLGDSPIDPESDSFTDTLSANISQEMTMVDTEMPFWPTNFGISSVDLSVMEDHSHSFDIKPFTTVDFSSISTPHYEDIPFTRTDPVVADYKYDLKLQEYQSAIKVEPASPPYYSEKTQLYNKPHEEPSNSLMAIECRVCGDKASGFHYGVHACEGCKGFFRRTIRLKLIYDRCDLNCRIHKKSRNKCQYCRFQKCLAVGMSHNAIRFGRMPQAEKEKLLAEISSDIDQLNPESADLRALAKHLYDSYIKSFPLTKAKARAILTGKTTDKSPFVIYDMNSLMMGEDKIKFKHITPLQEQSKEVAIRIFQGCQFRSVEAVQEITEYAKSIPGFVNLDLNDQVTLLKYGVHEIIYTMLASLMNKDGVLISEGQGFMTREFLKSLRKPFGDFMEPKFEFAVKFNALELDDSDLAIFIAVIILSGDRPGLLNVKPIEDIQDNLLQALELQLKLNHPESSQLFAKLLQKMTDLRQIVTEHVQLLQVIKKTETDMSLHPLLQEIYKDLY

B1: Liver X Receptor α (receptor, UniProt Q13133 1-447)
chain: MSLWLGAPVPDIPPDSAVELWKPGAQDASSQAQGGSSCILREEARMPHSAGGTAGVGLEAAEPTALLTRAEPPSEPTEIRPQKRKKGPAPKMLGNELCSVCGDKASGFHYNVLSCEGCKGFFRRSVIKGAHYICHSGGHCPMDTYMRRKCQECRLRKCRQAGMREECVLSEEQIRLKKLKRQEEEQAHATSLPPRASSPPQILPQLSPEQLGMIEKLVAAQQQCNRRSFSDRLRVTPWPMAPDPHSREARQQRFAHFTELAIVSVQEIVDFAKQLPGFLQLSREDQIALLKTSAIEVMLLETSRRYNPGSESITFLKDFSYNREDFAKAGLQVEFINPIFEFSRAMNELQLNDAEFALLIAISIFSADRPNVQDQLQVERLQHTYVEALHAYVSIHHPHDRLMFPRMLMKLVSLRTLSSVHSEQVFALRLQDKKLPPLLSEIWDVHE
modifications: 35S-radiolabeled
B2: Peroxisome Proliferator Activated Receptor α (receptor, UniProt Q07869 1-468)
chain: MVDTESPLCPLSPLEAGDLESPLSEEFLQEMGNIQEISQSIGEDSSGSFGFTEYQYLGSCPGSDGSVITDTLSPASSPSSVTYPVVPGSVDESPSGALNIECRICGDKASGYHYGVHACEGCKGFFRRTIRLKLVYDKCDRSCKIQKKNRNKCQYCRFHKCLSVGMSHNAIRFGRMPRSEKAKLKAEILTCEHDIEDSETADLKSLAKRIYEAYLKNFNMNKVKARVILSGKASNNPPFVIHDMETLCMAEKTLVAKLVANGIQNKEAEVRIFHCCQCTSVETVTELTEFAKAIPGFANLDLNDQVTLLKYGVYEAIFAMLSSVMNKDGMLVAYGNGFITREFLKSLRKPFCDIMEPKFDFAMKFNALELDDSDISLFVAAIICCGDRPGLLNVGHIEKMQEGIVHVLRLHLQSNHPDDIFLFPKLLQKMADLRQLVTEHAQLVQIIKKTESDAALHPLLQEIYRDMY
modifications: 35S-radiolabeled
B3: Farnesoid X Receptor (receptor, UniProt Q96RI1 1-486)
chain: MVMQFQGLENPIQISPHCSCTPSGFFMEMMSMKPAKGVLTEQVAGPLGQNLEVEPYSQYSNVQFPQVQPQISSSSYYSNLGFYPQQPEEWYSPGIYELRRMPAETLYQGETEVAEMPVTKKPRMGASAGRIKGDELCVVCGDRASGYHYNALTCEGCKGFFRRSITKNAVYKCKNGGNCVMDMYMRRKCQECRLRKCKEMGMLAECMYTGLLTEIQCKSKRLRKNVKQHADQTVNEDSEGRDLRQVTSTTKSCREKTELTPDQQTLLHFIMDSYNKQRMPQEITNKILKEEFSAEENFLILTEMATNHVQVLVEFTKKLPGFQTLDHEDQIALLKGSAVEAMFLRSAEIFNKKLPSGHSDLLEERIRNSGISDEYITPMFSFYKSIGELKMTQEEYALLTAIVILSPDRQYIKDREAVEKLQEPLLDVLQKLCKIHQPENPQHFACLLGRLTELRTFNHHHAEMLMSWRVNDHKFTPLLCEIWDVQ
modifications: 35S-radiolabeled

Target: T1, GST fusion with the receptor interaction domains (RID) of NCoRω (amino acids 1817–2453)
Test: pull-down; GST fusion protein (~50 ng) immobilised on ~10 μl glutathione-agarose; 35S-radiolabeled in vitro translated nuclear receptor (2–5 μl TnT product) in 120 μl HEMG buffer (4 mM HEPES pH 7.8, 0.2 mM EDTA, 5 mM MgCl2, 10% glycerol, 100 mM KCl, 0.1% Nonidet P-40, 1.5 mM DTT) with 10 mg/ml BSA; 3 hr at 4°C; eluted with 10 mM glutathione, SDS-PAGE, PhosphorImager; only the target purified

Row | Molecule | binding
1 | Peroxisome Proliferator Activated Receptor γ (from UniProt P37231 1-505) | binds
2 | B1 | binds
3 | B2 | binds
4 | B3 | binds
